The structures appear in SMILES notation.

Data set [1] is described as follows: Efficacy and durability of waving: length of the loop of curled locks after relaxation at controlled humidity. The note with it: for Length of the lock initially: t=0, 80% relative humidity, 2-iminothiolane HCl 1% by weight, pH 7.4, 50° C., 2 hours, thioglycolic acid 1 mol/L, pH 8.5, 30° C., 15 minutes, then H2O2 fixation; for Length of the lock initially / Length of the lock at t = 30 min / Length of the lock at t = 1 h: 25° C.; for Length of the lock at t = 30 min: t=30 minutes at 80% relative humidity; for Length of the lock at t = 30 min / Length of the lock at t = 1 h: same treatments as E1; for Length of the lock at t = 1 h: t=1 hour at 80% relative humidity.

Data set [2] in a line: Compatibility of waving with subsequent coloration by oxidation: uptake of the color (spectrocolorimeter, L*a*b). Conditions: coloration with L'OREAL Professionnel Crescendo 7.44, 30 minutes at 30° C., on locks treated as in Example 1; ΔE*ab.

Take `Cl.N=C1CCCS1` [2-iminothiolane HCl, :-dihydro-thiophen-2-ylideneamine hydrochloride]: in data set [1], the “Length of the lock initially” value was found to be 7.5 mm, the “Length of the lock at t = 30 min” value was determined as 12.5 mm and the “Length of the lock at t = 1 h” value came out at 14 mm. Besides, the “Waving effect of the treatment (in words)” value in data set [1] (treatment at neutral pH followed by fixation) is recorded as “leads to permanent waving”. The “Uptake of the color (ΔE)” value in data set [2] is reported as 23.9 +/− 1.4.

Turning to `O=C(O)CS` [thioglycolic acid, reference compound], in data set [1], the “Length of the lock initially” value was determined as 7 mm, the “Length of the lock at t = 30 min” value is reported as 9.5 mm and the “Length of the lock at t = 1 h” value was determined as 12.5 mm. Also, the “Uptake of the color (ΔE)” value in data set [2] is 29.0 +/− 0.5.
